Assay results as given in article PMC11960969, “Mdga2 deficiency leads to an aberrant activation of BDNF/TrkB signaling that underlies autism-relevant synaptic and behavioral changes in mice” (PLOS Biology, 2025).
These are yes or no findings as the source states them, for the method shown. Binding seen in cells or lysates may run through a third protein. Where a sequence is shown, tags or fusion partners need not be part of it.

Sequences of proteins named here, by UniProt entry; tags and fusion partners are left off. A change or cut given only in a name is not applied to a line headed by its entry.
UniProt Q16620: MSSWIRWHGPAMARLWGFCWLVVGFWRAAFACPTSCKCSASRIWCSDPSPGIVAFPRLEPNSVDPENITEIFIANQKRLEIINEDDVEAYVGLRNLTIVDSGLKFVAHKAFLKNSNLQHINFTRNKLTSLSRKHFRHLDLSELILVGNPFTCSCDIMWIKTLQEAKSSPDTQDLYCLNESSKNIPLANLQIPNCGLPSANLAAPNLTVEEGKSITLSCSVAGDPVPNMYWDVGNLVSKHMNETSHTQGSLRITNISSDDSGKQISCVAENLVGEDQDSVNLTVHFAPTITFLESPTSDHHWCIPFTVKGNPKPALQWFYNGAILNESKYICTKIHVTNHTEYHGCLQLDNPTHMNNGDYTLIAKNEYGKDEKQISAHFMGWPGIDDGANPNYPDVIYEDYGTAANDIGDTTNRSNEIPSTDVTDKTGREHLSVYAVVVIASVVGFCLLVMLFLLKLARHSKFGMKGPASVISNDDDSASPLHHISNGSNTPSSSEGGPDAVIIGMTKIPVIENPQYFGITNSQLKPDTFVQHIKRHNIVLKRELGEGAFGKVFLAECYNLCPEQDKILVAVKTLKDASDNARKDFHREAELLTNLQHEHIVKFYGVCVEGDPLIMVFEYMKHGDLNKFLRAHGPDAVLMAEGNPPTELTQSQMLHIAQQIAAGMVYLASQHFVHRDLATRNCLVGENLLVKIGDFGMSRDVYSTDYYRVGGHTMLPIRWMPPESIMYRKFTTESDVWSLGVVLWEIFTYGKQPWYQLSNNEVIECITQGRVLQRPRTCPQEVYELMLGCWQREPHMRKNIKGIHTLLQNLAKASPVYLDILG

Molecular target: Flag-tagged TrkB lacking the IgG2/d5 domain (TrkB-Δd5) (human) (UniProt Q16620)
Test: co-IP; HEK293T cells co-transfected with Flag-tagged TrkB constructs and GFP-tagged MDGA2 constructs; lysates IP with control IgG, anti-Flag or anti-GFP, immunoblot

- binding: no binding
B1: GFP-tagged full-length human MDGA2 (MDGA2-GFP) (protein, UniProt Q7Z553 26-931)
chain: PPTVRIVHSGLACNIEEERYSERVYTIREGETLELTCLVTGHPRPQIRWTKTAGSASDRFQDSSVFNETLRITNIQRHQGGRYYCKAENGLGSPAIKSIRVDVYYLDDPVVTVHQSIGEAKEQFYYERTVFLRCVANSNPPVRYSWRRGQEVLLQGSDKGVEIYEPFFTQGETKILKLKNLRPQDYANYSCIASVRNVCNIPDKMVSFRLSNKTASPSIKLLVDDPIVVNPGEAITLVCVTTGGEPAPSLTWVRSFGTLPEKTVLNGGTLTIPAITSDDAGTYSCIANNNVGNPAKKSTNIIVRALKKGRFWITPDPYHKDDNIQIGREVKISCQVEAVPSEELTFSWFKNGRPLRSSERMVITQTDPDVSPGTTNLDIIDLKFTDFGTYTCVASLKGGGISDISIDVNISSSTVPPNLTVPQEKSPLVTREGDTIELQCQVTGKPKPIILWSRADKEVAMPDGSMQMESYDGTLRIVNVSREMSGMYRCQTSQYNGFNVKPREALVQLIVQYPPAVEPAFLEIRQGQDRSVTMSCRVLRAYPIRVLTYEWRLGNKLLRTGQFDSQEYTEYAVKSLSNENYGVYNCSIINEAGAGRCSFLVTGKAYAPEFYYDTYNPVWQNRHRVYSYSLQWTQMNPDAVDRIVAYRLGIRQAGQQRWWEQEIKINGNIQKGELITYNLTELIKPEAYEVRLTPLTKFGEGDSTIRVIKYSAPVNPHLREFHCGFEDGNICLFTQDDTDNFDWTKQSTATRNTKYTPNTGPNADRSGSKEGFYMYIETSRPRLEGEKARLLSPVFSIAPKNPYGPTNTAYCFSFFYHMYGQHIGVLNVYLRLKGQTTIENPLWSSSGNKGQRWNEAHVNIYPITSFQLIFEGIRGPGIEGDIAIDDVSIAEGECAKQDLATKNSVD
